Results are given in words; binding and its absence hold for the method and conditions named. Some results given as binding are weak or reduced against the parent protein; the word gives no strength.
Target: T1, full-length human KIF5A-mScarlet-StrepII (human), Q12840
T1 chain: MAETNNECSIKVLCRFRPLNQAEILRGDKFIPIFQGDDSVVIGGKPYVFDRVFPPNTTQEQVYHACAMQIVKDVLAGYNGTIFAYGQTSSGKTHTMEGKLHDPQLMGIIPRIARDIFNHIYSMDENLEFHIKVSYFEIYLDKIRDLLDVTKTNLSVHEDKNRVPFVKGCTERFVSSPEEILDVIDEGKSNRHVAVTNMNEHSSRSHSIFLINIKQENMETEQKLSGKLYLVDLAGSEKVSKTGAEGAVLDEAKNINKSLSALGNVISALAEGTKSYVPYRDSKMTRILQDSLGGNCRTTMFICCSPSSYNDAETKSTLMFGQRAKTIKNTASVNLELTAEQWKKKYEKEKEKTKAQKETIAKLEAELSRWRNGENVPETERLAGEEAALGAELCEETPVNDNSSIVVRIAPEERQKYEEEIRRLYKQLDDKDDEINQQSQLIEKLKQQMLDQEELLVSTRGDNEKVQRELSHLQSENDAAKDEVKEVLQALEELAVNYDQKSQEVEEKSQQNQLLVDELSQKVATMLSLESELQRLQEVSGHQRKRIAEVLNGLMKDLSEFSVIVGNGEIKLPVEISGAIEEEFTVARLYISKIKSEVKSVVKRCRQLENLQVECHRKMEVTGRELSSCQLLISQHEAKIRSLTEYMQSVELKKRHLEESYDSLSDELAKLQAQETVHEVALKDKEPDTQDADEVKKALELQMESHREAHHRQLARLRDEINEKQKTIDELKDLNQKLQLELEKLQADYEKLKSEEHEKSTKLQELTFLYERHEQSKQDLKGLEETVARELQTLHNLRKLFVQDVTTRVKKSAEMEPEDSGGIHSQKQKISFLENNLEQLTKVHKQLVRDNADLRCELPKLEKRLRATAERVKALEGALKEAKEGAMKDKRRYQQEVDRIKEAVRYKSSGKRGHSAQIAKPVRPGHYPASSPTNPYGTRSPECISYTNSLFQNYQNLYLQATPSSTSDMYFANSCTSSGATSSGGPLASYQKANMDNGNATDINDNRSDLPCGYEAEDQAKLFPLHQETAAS
Test: SEC-MALS; KIF5-KLC1 complexes co-expressed in Sf9 and co-purified; BioSep SEC-s4000 column, GF150 buffer (25 mM HEPES-KOH, 150 mM KCl, 2 mM MgCl2); both purified
Settings: remark: other sources report otherwise

B1: full-length human KIF5A-mScarlet-StrepII, Q12840 1-1032 (natural protein)
chain: MAETNNECSIKVLCRFRPLNQAEILRGDKFIPIFQGDDSVVIGGKPYVFDRVFPPNTTQEQVYHACAMQIVKDVLAGYNGTIFAYGQTSSGKTHTMEGKLHDPQLMGIIPRIARDIFNHIYSMDENLEFHIKVSYFEIYLDKIRDLLDVTKTNLSVHEDKNRVPFVKGCTERFVSSPEEILDVIDEGKSNRHVAVTNMNEHSSRSHSIFLINIKQENMETEQKLSGKLYLVDLAGSEKVSKTGAEGAVLDEAKNINKSLSALGNVISALAEGTKSYVPYRDSKMTRILQDSLGGNCRTTMFICCSPSSYNDAETKSTLMFGQRAKTIKNTASVNLELTAEQWKKKYEKEKEKTKAQKETIAKLEAELSRWRNGENVPETERLAGEEAALGAELCEETPVNDNSSIVVRIAPEERQKYEEEIRRLYKQLDDKDDEINQQSQLIEKLKQQMLDQEELLVSTRGDNEKVQRELSHLQSENDAAKDEVKEVLQALEELAVNYDQKSQEVEEKSQQNQLLVDELSQKVATMLSLESELQRLQEVSGHQRKRIAEVLNGLMKDLSEFSVIVGNGEIKLPVEISGAIEEEFTVARLYISKIKSEVKSVVKRCRQLENLQVECHRKMEVTGRELSSCQLLISQHEAKIRSLTEYMQSVELKKRHLEESYDSLSDELAKLQAQETVHEVALKDKEPDTQDADEVKKALELQMESHREAHHRQLARLRDEINEKQKTIDELKDLNQKLQLELEKLQADYEKLKSEEHEKSTKLQELTFLYERHEQSKQDLKGLEETVARELQTLHNLRKLFVQDVTTRVKKSAEMEPEDSGGIHSQKQKISFLENNLEQLTKVHKQLVRDNADLRCELPKLEKRLRATAERVKALEGALKEAKEGAMKDKRRYQQEVDRIKEAVRYKSSGKRGHSAQIAKPVRPGHYPASSPTNPYGTRSPECISYTNSLFQNYQNLYLQATPSSTSDMYFANSCTSSGATSSGGPLASYQKANMDNGNATDINDNRSDLPCGYEAEDQAKLFPLHQETAAS
binding: binds
